No constants are given. Whether binding was seen depends on the method and setting. Binding seen in cells or lysates may run through a third protein. Some binding calls cover weakened binding; strength is not graded here. Sequences can lack the tags named with a protein.
Biological target: T1, ASGR1-3×Flag (asialoglycoprotein receptor 1, from pEF1a-ASGR1-3×Flag-IRES-GFP) (human) (UniProt P07306)
T1 sequence: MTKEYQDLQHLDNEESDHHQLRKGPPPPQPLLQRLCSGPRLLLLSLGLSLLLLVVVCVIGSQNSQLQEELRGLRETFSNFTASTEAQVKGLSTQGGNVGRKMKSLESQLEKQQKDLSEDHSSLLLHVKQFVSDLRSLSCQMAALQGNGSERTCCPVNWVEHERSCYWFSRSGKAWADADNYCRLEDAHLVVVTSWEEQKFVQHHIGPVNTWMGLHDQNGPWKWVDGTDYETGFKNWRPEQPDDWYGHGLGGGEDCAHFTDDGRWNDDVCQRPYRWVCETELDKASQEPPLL
Assay: co-IP; HEK293T co-transfected with HA-tagged PON2 (or its truncations) and Flag-tagged ASGR1; precipitated with Flag antibody (ASGR1 as bait); western blot for PON2 and ASGR1

By UniProt entry, the sequences of proteins in these tests, tags left out.
UniProt Q15165: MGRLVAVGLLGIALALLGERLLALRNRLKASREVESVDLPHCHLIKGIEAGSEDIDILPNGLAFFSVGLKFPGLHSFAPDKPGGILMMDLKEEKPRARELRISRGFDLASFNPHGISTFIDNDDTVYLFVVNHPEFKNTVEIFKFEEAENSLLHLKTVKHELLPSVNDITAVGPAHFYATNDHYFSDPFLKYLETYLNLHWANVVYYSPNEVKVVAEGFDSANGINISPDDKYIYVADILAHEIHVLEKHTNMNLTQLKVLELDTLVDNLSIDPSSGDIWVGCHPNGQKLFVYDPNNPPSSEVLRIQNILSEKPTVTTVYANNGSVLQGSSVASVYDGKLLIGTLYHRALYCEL

**Q.** “PON2-3×HA (paraoxonase-2, from pEF1a-PON2-3×HA-SV40-Puro) (from UniProt Q15165 1-354)” was tested. Which binding did it give?
**A.** The binding was “binds”.

Source: PMC11269292
